Assay results taken from patent US7842856B2, “Herbicide resistance gene, compositions and methods” (The Board of Trustees of the University of Illinois, priority 2005, dated 2010).

What was measured:
[1] = tested on: A. tuberculatus F1(R) hybrid (maternal parent R); assay: Herbicide dose-response on whole plants, F1(R) line; format: in vivo, Amaranthus tuberculatus (waterhemp); conditions: degree of dominance from log(GR50)
[2] = tested on: A. tuberculatus F1(S) hybrid (maternal parent S); assay: Herbicide dose-response on whole plants, F1(S) line; format: in vivo, Amaranthus tuberculatus (waterhemp); conditions: degree of dominance from log(GR50)

Structure (SMILES): CCOC(=O)C(C)OC(=O)c1cc(Oc2ccc(C(F)(F)F)cc2Cl)ccc1[N+](=O)[O-] (racemic) [Lactofen, (±)-2-ethoxy-1-methyl-2-oxoethyl 5-{2-chloro-4-(trifluoromethyl)phenoxy}-2-nitrobenzoate]
- Dominance F1(R) ([1]; 10 DAT): −0.06
- Dominance F1(R) ([1]; 15 DAT): 0.72
- Dominance F1(S) ([2]; 10 DAT): 0.56
- Dominance F1(S) ([2]; 15 DAT): 0.76
